# Percent effect of library compounds

Sequences of proteins named here, by UniProt entry; tags and fusion partners are left off. Residues count along the entry.
UniProt Q4DA54, 1-478: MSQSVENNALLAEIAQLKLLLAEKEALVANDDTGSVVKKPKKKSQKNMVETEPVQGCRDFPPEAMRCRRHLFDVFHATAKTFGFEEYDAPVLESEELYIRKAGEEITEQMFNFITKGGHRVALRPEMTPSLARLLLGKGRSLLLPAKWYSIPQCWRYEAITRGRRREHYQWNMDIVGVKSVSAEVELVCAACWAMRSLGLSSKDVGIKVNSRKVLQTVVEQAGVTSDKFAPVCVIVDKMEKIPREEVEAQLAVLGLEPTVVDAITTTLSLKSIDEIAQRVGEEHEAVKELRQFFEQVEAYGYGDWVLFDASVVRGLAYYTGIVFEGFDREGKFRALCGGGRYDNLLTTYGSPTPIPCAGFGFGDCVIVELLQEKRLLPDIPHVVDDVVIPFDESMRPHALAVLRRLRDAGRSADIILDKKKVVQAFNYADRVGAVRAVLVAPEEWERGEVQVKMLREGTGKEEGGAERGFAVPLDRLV

Measurements from “University of Dundee, Small-Polar-MMV Screening Library” (2021), ChEMBL document CHEMBL3988442.

Values are the deposited “Percent Effect”, in %.
How 0% and 100% were set is not recorded. Most values in the screen are low, and negative values occur.
Compounds were drawn at random from those tested, without regard to their results.

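Enzyme assay of histidyl-tRNA synthetase; the read-out is not stated. Target: Histidine-tRNA ligase, Trypanosoma cruzi CL Brener (UniProt Q4DA54). Concentration: 30 µM. Higher reads as stronger inhibition (inferred: compounds with an IC50 in retests scored well above the rest). About 69,000 compounds were tested under these conditions; 0.045% (about 31) showed 50% or more at least once.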

- CCCN1CCN(C(=O)c2cccc3cccnc23)[C@H]2CS(=O)(=O)C[C@H]21 | 0%
- COc1ccc(C2(NCc3c(C)nc4c(C)cccn34)CCCC2)cc1 | 3.788%
- CCn1nc(CC(C)C)cc1C(=O)NCCn1cccc1 | 5.691%
- O=C(Nc1ccccc1-c1ccccc1)N1C[C@@H]2CNC[C@]2(C(=O)O)C1 | 8.046%
- CNc1nc(CNC(=O)Nc2cccc(CSC)c2)cs1 | 3.79%
- Fc1ccc(NCc2ncc[nH]2)cc1Br | 1.622%
- COc1ccc2c3c1CN(S(C)(=O)=O)CC3=CC(C)(C)CO2 | 8.989%
- O=C([C@@H]1CC[C@@H]2[C@@H](CCN2Cc2cccs2)O1)N1CCCCO1 | 5.882%
- O=C(O)COc1ccccc1CN1CCCC1c1cnccn1 (stereo not drawn) | -0.7491%
- O=C(O)c1ccccc1-c1c(-c2ccccc2)ncn1C[C@H]1CCCN1 | -7.407%
- CCOC(=O)c1ccc(CNC(=O)c2ccc(Cl)cn2)o1 | 1.724%
- Cc1ccc(-c2ncc(CN3CCN(S(N)(=O)=O)CC3)s2)o1 | 2.128%
- Cc1nc(C)n(C2CCCN(C(=O)c3cc(C(N)=O)cs3)C2)n1 (stereo not drawn) | 0.3759%
- Cc1ccc(NC2COC3(CCN(Cc4ccn(C)n4)CC3)C2)nn1 (stereo not drawn) | 7.362%
- O=C(N1CCCC1)N1CCC[C@]2(C[C@@H](Oc3ncccc3F)CO2)C1 | 6.14%
- CN(Cc1cn[nH]c1-c1ccc(F)cc1)C(=O)CCC1CC1 | 7.216%
- Cc1cc(C(F)(F)F)nc(CNc2nc(C)nc3c2cnn3C)n1 | 4%
- CN(CC(=O)Nc1ccccc1)C(=O)CN(C)c1ccc(Cl)cn1 | 8.642%
- CN(C)C(=O)COC1COC2(CCN(c3cnccn3)CC2)C1 (stereo not drawn) | 4.301%
- COc1ccc(CCC(=O)NCCN2CCC(c3cccs3)CC2)cc1 | 10.55%
- O=C(NCCNc1ncccn1)N1CCCC1c1ccc(F)cc1 (stereo not drawn) | 7.317%
- Cc1c(CS(C)(=O)=O)cccc1NC(=O)CC1CCCC1 | 3.448%
- Cn1nnnc1SCC1(O)CCCCC1 | 0%
- CC(=O)NCC(=O)N1CCC(C2CCN(Cc3ccc(Cl)cc3)C2)CC1 (stereo not drawn) | 7.65%
- Cc1csc(N2CCN(CC(=O)Nc3ccncc3)CC2C)n1 (stereo not drawn) | 10.79%
- CC(=O)N1CCC2(CC1)CCN(C(=O)c1ccc(F)c(C(F)(F)F)c1)C2 | 5.785%
- CCCS(=O)(=O)N1CCOC2(CCCN(c3ccccn3)C2)C1 (stereo not drawn) | 1.22%
- CCOC(=O)C(C)Nc1cccc(COCc2ccco2)c1 (stereo not drawn) | 8%
- CN1CCN(C)C2(CCN(Cc3ccc(C4CCCO4)s3)CC2)C1 (stereo not drawn) | 0.578%
- CN(C(=O)c1cn(C)cn1)[C@@H]1CCC[C@@H](Oc2ccccc2)[C@@H]1O | 4.478%
- O=C(c1cnccn1)N1CC(S(=O)(=O)c2ccc(Cl)cc2)C1 | 1%
- Cc1nc(C)n(CC2CCCN(Cc3noc(C)n3)C2)n1 (stereo not drawn) | 7.736%
- CCn1cc(Cn2cc(-c3cccc(C(C)N(C)C)c3)nn2)cn1 (stereo not drawn) | 5.587%
- CN(Cc1ccncc1)CC1CCCN(CCc2ccc(Cl)cc2)C1 (stereo not drawn) | 1.205%
- CCNC(=O)C(C)NC(=O)c1cnc(-c2ccc(C)cc2C)s1 (stereo not drawn) | 2.035%
- CNC(=O)NC(C)c1nc(-c2ccc(Br)cc2)no1 (stereo not drawn) | -13.81%
- Cn1cnnc1C1CCN(c2cncc(-n3cccn3)n2)CC1 | -0.5348%
- COc1ccc(Cl)cc1CS(=O)(=O)Cc1cc(C)on1 | 4.255%
- CCCn1ncc(C(=O)N(C)Cc2cc(C3CC3)[nH]n2)c1C | 9.901%

Some entries from above, unchanged:

Compound	percent effect
COc1ccc2c3c1CN(S(C)(=O)=O)CC3=CC(C)(C)CO2	8.989
CNc1nc(CNC(=O)Nc2cccc(CSC)c2)cs1	3.79
Cn1cnnc1C1CCN(c2cncc(-n3cccn3)n2)CC1	-0.5348